Data on 37 targets can be found in the supplement of paper PMC12067093, “Discovery and optimisation of a covalent ligand for TRIM25 and its application to targeted protein ubiquitination” (Chemical Science, 2025).

Protein sequences, listed by entry. Tags and fused reporters are not part of them. Lines headed by an entry give the natural chain unless they say otherwise; changes in a name come on top.
UniProt Q96JM7: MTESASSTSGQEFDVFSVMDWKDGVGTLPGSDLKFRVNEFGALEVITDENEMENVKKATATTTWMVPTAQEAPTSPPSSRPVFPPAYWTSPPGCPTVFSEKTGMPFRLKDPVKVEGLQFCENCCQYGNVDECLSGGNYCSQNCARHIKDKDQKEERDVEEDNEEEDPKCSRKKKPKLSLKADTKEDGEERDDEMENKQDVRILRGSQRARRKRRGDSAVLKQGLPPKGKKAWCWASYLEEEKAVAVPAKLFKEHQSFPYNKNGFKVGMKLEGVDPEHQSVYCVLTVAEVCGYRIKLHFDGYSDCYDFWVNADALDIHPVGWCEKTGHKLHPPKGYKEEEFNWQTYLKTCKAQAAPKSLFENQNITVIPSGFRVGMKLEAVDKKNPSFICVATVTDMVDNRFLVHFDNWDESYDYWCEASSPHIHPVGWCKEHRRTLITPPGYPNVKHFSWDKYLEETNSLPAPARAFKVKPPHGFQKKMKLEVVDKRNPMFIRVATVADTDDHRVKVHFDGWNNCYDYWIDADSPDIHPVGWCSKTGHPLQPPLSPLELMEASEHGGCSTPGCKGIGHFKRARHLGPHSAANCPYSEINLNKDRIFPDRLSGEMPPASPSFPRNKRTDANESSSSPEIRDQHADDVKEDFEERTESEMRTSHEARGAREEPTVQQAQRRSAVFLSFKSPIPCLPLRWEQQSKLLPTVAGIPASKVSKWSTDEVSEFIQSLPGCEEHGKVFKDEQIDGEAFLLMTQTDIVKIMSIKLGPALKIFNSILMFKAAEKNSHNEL
UniProt O00139: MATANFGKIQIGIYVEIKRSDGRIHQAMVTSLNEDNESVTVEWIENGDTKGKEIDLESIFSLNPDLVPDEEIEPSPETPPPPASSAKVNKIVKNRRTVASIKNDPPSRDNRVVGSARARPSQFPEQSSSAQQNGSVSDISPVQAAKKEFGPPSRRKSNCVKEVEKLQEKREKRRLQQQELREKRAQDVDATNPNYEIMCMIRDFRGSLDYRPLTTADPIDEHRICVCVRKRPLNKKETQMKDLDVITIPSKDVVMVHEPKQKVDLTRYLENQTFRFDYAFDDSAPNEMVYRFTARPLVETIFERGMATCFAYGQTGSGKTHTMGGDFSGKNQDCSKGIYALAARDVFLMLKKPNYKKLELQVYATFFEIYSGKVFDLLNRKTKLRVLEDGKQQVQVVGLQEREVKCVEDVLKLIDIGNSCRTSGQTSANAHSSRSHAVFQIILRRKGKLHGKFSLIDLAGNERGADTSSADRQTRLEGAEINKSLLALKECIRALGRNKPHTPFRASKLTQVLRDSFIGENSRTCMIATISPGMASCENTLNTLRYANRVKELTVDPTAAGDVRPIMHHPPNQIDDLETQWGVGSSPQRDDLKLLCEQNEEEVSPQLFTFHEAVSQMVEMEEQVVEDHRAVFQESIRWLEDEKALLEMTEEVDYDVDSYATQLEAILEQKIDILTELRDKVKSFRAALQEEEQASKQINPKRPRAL
UniProt Q96EM0: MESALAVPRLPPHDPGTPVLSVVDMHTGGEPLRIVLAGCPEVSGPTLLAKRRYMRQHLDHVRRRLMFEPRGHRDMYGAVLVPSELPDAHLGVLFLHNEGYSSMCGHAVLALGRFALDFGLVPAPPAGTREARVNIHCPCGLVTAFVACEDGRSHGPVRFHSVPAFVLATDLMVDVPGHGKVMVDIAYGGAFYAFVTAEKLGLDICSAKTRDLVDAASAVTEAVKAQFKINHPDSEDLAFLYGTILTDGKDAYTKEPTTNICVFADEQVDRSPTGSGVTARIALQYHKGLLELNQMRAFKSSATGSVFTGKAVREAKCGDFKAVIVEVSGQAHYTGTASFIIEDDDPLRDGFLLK
UniProt Q14847: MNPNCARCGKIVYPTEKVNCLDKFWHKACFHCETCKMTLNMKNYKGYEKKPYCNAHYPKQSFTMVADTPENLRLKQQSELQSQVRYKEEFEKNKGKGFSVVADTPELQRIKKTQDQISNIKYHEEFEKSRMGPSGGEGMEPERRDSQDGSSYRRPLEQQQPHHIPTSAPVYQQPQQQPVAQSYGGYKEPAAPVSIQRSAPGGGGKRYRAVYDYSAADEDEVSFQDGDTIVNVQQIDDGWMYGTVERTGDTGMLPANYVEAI
UniProt Q9H0B6: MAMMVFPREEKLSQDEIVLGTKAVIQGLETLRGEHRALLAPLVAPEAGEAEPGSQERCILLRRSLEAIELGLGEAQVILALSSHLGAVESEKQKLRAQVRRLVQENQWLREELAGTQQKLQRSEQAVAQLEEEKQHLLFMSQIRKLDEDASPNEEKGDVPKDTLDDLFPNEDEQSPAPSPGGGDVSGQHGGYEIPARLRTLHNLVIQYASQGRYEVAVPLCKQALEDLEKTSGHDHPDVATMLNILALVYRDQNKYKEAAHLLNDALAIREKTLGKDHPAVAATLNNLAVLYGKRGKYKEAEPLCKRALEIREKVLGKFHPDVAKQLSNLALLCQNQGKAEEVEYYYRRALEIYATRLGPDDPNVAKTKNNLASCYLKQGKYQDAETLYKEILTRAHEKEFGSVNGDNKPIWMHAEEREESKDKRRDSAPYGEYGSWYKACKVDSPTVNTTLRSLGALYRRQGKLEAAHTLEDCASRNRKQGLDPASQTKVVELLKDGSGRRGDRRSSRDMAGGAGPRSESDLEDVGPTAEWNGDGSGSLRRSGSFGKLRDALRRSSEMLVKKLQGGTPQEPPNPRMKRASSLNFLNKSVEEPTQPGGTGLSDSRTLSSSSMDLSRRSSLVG
UniProt Q9UIC8: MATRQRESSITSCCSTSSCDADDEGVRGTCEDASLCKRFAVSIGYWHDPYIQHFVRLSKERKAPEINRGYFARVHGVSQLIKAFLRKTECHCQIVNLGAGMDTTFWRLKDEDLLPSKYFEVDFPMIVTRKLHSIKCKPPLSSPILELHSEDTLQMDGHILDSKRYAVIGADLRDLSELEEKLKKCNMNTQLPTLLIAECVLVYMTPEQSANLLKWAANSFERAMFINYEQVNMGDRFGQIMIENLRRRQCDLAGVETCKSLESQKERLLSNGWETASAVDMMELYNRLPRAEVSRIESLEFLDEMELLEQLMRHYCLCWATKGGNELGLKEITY
UniProt Q4FZB7: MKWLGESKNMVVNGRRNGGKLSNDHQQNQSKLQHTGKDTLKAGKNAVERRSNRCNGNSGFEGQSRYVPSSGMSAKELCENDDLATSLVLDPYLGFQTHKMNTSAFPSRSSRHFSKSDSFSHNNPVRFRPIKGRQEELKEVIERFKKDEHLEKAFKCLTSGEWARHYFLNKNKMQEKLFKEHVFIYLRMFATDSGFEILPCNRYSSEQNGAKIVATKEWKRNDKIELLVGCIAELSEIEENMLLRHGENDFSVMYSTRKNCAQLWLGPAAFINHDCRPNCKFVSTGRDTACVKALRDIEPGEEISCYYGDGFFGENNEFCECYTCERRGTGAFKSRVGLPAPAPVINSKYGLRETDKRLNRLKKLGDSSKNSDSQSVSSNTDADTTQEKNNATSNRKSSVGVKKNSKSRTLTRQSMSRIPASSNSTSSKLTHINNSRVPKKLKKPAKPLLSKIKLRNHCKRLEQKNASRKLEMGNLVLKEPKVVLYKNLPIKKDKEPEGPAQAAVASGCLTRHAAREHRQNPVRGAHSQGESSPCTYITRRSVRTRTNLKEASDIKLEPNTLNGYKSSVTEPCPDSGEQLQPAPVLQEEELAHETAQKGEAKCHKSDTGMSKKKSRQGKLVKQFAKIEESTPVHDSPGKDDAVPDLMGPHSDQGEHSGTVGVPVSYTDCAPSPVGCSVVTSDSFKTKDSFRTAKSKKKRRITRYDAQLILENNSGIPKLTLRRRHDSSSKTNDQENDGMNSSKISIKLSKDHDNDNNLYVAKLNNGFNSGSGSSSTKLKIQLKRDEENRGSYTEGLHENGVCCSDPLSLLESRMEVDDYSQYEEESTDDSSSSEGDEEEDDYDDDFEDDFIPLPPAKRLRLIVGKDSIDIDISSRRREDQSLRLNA
UniProt P13796: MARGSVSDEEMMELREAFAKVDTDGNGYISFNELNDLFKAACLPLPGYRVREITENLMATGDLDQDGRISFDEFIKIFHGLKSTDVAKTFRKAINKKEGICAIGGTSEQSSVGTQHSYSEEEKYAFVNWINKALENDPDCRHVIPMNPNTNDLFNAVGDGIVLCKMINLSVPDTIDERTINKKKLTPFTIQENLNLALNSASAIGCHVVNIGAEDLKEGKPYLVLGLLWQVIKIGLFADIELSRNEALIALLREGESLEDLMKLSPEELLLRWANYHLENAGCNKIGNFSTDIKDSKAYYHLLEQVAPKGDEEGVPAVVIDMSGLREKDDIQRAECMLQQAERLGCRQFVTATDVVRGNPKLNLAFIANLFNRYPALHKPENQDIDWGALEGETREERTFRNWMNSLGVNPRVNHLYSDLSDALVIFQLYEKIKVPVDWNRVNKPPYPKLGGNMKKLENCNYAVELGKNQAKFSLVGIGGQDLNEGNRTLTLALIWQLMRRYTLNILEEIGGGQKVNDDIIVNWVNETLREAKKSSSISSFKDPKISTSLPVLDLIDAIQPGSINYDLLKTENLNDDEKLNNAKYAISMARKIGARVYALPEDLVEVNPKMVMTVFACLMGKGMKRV
UniProt Q9P2J5: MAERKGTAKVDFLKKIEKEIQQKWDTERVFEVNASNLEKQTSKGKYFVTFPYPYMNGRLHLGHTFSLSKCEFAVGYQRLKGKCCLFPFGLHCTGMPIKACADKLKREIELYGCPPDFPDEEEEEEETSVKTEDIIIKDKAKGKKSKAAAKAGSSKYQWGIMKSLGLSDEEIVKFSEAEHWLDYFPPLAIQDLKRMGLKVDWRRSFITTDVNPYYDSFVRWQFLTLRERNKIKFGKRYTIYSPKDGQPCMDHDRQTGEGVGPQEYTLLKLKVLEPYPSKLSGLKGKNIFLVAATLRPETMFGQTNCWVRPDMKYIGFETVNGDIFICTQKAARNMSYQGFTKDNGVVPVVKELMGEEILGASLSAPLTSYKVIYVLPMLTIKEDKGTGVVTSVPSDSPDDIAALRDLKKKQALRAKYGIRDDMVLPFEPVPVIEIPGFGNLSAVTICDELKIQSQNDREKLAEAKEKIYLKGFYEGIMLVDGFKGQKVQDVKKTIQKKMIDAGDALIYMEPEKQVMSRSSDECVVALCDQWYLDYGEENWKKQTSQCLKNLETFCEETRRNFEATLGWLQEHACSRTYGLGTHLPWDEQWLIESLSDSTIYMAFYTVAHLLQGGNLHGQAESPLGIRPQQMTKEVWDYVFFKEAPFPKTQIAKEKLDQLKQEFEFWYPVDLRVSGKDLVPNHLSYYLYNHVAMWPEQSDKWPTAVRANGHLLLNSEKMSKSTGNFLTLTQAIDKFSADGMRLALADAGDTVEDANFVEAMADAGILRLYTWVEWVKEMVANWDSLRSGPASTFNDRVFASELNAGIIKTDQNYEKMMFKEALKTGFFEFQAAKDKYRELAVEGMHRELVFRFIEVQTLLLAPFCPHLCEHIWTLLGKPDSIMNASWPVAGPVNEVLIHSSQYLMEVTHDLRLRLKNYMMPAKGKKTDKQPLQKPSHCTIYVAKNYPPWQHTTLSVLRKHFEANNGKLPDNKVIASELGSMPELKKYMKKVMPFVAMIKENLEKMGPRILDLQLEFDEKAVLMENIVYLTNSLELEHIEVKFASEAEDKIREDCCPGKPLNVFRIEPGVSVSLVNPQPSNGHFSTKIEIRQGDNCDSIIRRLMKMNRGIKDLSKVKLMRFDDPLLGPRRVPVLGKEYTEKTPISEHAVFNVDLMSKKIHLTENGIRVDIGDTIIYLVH
UniProt Q53GT1: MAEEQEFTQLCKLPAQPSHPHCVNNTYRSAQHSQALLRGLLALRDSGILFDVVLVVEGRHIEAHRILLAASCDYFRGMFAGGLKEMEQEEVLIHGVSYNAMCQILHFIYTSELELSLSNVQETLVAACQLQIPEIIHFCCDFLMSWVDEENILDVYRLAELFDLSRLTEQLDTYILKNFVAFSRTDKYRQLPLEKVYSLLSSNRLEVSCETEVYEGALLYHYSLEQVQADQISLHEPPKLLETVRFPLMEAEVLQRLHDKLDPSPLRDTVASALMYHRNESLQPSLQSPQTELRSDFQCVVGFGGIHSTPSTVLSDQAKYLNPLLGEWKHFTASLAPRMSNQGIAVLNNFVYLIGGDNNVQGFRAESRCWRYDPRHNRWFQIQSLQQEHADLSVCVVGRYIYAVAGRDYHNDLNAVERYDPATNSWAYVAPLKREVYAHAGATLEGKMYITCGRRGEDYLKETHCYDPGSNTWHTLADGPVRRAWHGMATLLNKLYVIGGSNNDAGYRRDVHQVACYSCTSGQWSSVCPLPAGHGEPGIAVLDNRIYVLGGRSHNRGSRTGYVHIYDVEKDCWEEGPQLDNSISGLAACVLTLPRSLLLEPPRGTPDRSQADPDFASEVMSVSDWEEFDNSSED

This is one part of the list.

Compound in this assay: Cc1cc(ccc1-c1ccccc1)C(=O)N1CCCN(CC1)C(=O)CCl [compound 10]
In words: probe-labelled cysteine peptide fold change vs DMSO (competition) (log2 fold change); higher = less target engagement (more negative = stronger competition). The settings on record: THP-1, incubation time: 4 h.
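Note: competitive profiling in live THP-1 cells: cysteine peptides tagged with an iodoacetamide desthiobiotin (IA-DTB) probe, intensity after compound treatment relative to DMSO-treated cells.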

On to “LDHD_Q86WU2_429_EDLNASGLTGSIVGHVGDGNFHCILLVNPDDAEELGR (UniProt Q86WU2)”, for which the “probe-labelled cysteine peptide fold change” value runs as follows: (10 µM) -0.0221; (50 µM) -0.145.
With “L2HGDH_Q9H9P8_376_ACFLGATVK (UniProt Q9H9P8)”, the “probe-labelled cysteine peptide fold change” value by setting is: (10 µM) 0.0555; (50 µM) -0.155.
As for “LARP1_Q6PKG0_1054_RCPSQSSSR (UniProt Q6PKG0)”, the “probe-labelled cysteine peptide fold change” value runs as follows: (10 µM) 0.0701; (50 µM) -0.207.
The corresponding values for “LAP3_P28838_445_QVVDCQLADVNNIGK (UniProt P28838)” are 0.0354 and 0.0552.
In the case of “LAMP2_P13473_153_CNSLSTLEK (UniProt P13473)”, the “probe-labelled cysteine peptide fold change” value is -0.124 (10 µM) and -0.0914 (50 µM).
On to “L3MBTL3_Q96JM7_723_WSTDEVSEFIQSLPGCEEHGK (UniProt Q96JM7)”, for which the “probe-labelled cysteine peptide fold change” value (10 µM) stood at 0.131 and the “probe-labelled cysteine peptide fold change” value (50 µM) amounted to 0.0663.
Consider “LARP4_Q71RC2_599_ASTASPCNNNINAATAVALQEPR (UniProt Q71RC2)”, for which the “probe-labelled cysteine peptide fold change” value was -0.38 (10 µM) and -0.0447 (50 µM).
The corresponding values for “KIF2A_O00139_406_CVEDVLK (UniProt O00139)” are 0.214 and -0.0792.
For the target “L3HYPDH_Q96EM0_139+148_VNIHCPCGLVTAFVACEDGR (UniProt Q96EM0)”, the “probe-labelled cysteine peptide fold change” value is, setting by setting: (10 µM) -0.119; (50 µM) -0.506.
The corresponding values for “LASP1_Q14847_35_ACFHCETCK (UniProt Q14847)” are 0.0524 and -0.129.
For the target “KNTC1_P50748_911_IIDLIDREQGEDCLLLLK (UniProt P50748)”, the “probe-labelled cysteine peptide fold change” value runs as follows: (10 µM) 0.188; (50 µM) 0.133.
As for “KYAT3_Q6YP21_313_HLQTVQQNTIYTCATPLQEALAQAFWIDIKR (UniProt Q6YP21)”, the “probe-labelled cysteine peptide fold change” value runs as follows: (10 µM) 0.298; (50 µM) 0.0587.
On to “KRI1_Q8N9T8_667_LLGPTVMLGGCEFSR (UniProt Q8N9T8)”, for which the “probe-labelled cysteine peptide fold change” value is 0.253 (10 µM) and -0.845 (50 µM).
Regarding “LDHA_P00338_163_VIGSGCNLDSAR (UniProt P00338)”, the “probe-labelled cysteine peptide fold change” value by setting is: (10 µM) -0.0735; (50 µM) 0.0826.
In the case of “KLC2_Q9H0B6_474_LEAAHTLEDCASR (UniProt Q9H0B6)”, the “probe-labelled cysteine peptide fold change” value (10 µM) was -0.0332 and the “probe-labelled cysteine peptide fold change” value (50 µM) is -0.246.
For “KIF23_Q02241_412_MIVCVNPK (UniProt Q02241)”, the “probe-labelled cysteine peptide fold change” value runs as follows: (10 µM) 0.53; (50 µM) -0.0803.
On to “KLC4_Q9NSK0_53_SEHQAVLQSLSQTIECLQQGGHEEGLVHEK (UniProt Q9NSK0)”, for which the “probe-labelled cysteine peptide fold change” value was 0.00259 (10 µM) and -0.22 (50 µM).
Take “LAS1L_Q9Y4W2_316_GVTCENR (UniProt Q9Y4W2)”: the “probe-labelled cysteine peptide fold change” value was -0.128 (10 µM) and 0.228 (50 µM).
The corresponding values for “LCMT1_Q9UIC8_136_CKPPLSSPILELHSEDTLQMDGHILDSKR (UniProt Q9UIC8)” are -0.102 and -0.544.
For “LARP1_Q6PKG0_502_REEPEKWPLPPIVDYSQTDFSQLLNCPEFVPR (UniProt Q6PKG0)”, the “probe-labelled cysteine peptide fold change” value was -0.146 (10 µM) and -0.353 (50 µM).
Regarding “LDHD_Q86WU2_274_LHPAPEATVAATCAFPSVQAAVDSTVHILQAAVPVAR (UniProt Q86WU2)”, the “probe-labelled cysteine peptide fold change” value was 0.28 (10 µM) and 0.729 (50 µM).
The corresponding values for “KLC1_Q07866_349_QLNNLALLCQNQGK (UniProt Q07866)” are 0.114 and 0.0215.
Consider “KPNB1_Q14974_765_ESCLEAYTGIVQGLKGDQENVHPDVMLVQPR (UniProt Q14974)”, for which the “probe-labelled cysteine peptide fold change” value reads like this: (10 µM) 0.414; (50 µM) -0.185.
Consider “KLC4_Q9NSK0_489_QGKLEAAETLEECALR (UniProt Q9NSK0)”, for which the “probe-labelled cysteine peptide fold change” value is, setting by setting: (10 µM) -0.173; (50 µM) -0.911.
On to “KMT5B_Q4FZB7_54_CNGNSGFEGQSR (UniProt Q4FZB7)”, for which the “probe-labelled cysteine peptide fold change” value is -0.424 (10 µM) and -0.621 (50 µM).
Regarding “LDHD_Q86WU2_310_IEFLDEVMMDACNR (UniProt Q86WU2)”, the “probe-labelled cysteine peptide fold change” value by setting is: (10 µM) 0.198; (50 µM) 0.345.
In the case of “KLHL30_Q0D2K2_231_AAHLPELLSLVHLDAVPRPCVQQLLASEPLIQESEACR (UniProt Q0D2K2)”, the “probe-labelled cysteine peptide fold change” value is -0.108 (10 µM) and -0.628 (50 µM).
With “LARP4_Q71RC2_65_VWQEIAPGNTDATPVTHGTESSWHEIAATSGAHPEGNAELSEDICK (UniProt Q71RC2)”, the “probe-labelled cysteine peptide fold change” value turned out to be 0.191 (10 µM) and 0.0296 (50 µM).
For the target “KYNU_Q16719_45_HFRECFYIPK (UniProt Q16719)”, the “probe-labelled cysteine peptide fold change” value runs as follows: (10 µM) -0.353; (50 µM) -0.676.
As to “LCP1_P13796_101_EGICAIGGTSEQSSVGTQHSYSEEEK (UniProt P13796)”, the “probe-labelled cysteine peptide fold change” value runs as follows: (10 µM) -0.236; (50 µM) -0.201.
The corresponding values for “L3MBTL2_Q969R5_531_LFNMDCPNHGFK (UniProt Q969R5)” are -0.147 and -0.344.
The corresponding values for “KMT2B_Q9UMN6_353_VGSGQGGSPCWK (UniProt Q9UMN6)” are -0.0261 and -0.126.
The corresponding values for “KYAT3_Q6YP21_337_RMDDPECYFNSLPK (UniProt Q6YP21)” are -0.0175 and -0.0756.
Take “LARS_Q9P2J5_248_DGQPCMDHDR (UniProt Q9P2J5)”: the “probe-labelled cysteine peptide fold change” value by setting is: (10 µM) -0.00101; (50 µM) 0.12.
Turning to “LARS_Q9P2J5_70_CEFAVGYQR (UniProt Q9P2J5)”, the “probe-labelled cysteine peptide fold change” value is, setting by setting: (10 µM) -0.278; (50 µM) -0.616.
For “LACTB2_Q53H82_90_DHSGGIGDICK (UniProt Q53H82)” the same measures were -0.0717 and -0.0333.
For “KLHL22_Q53GT1_572+589_DCWEEGPQLDNSISGLAACVLTLPR (UniProt Q53GT1)”, the “probe-labelled cysteine peptide fold change” value runs as follows: (10 µM) -0.193; (50 µM) 0.316.
